According to PMC11374535:
These are yes or no findings as the source states them, for the method shown. Binding seen in cells or lysates may run through a third protein. A result given as binding can be weak or reduced; the word gives no strength. Where a sequence is shown, tags or fusion partners need not be part of it.

Biological target: SlGrx9-Flag (tomato (Solanum lycopersicum))
Assay: co-IP; SlTrxh-GFP and SlGrx9-Flag co-expressed in N. benthamiana leaves for 48-72 h; Anti-Flag Affinity Gel; blots with anti-GFP and anti-Flag

B1: SlTrxh-GFP (protein, UniProt Q9LKW0 65-175)
chain: EDYLVKKLSAKEIQELIKGERNVPLIIDFYATWCGPCILMAQELEMLAVEYENNALIVKVDTDDEYEFARDMQVRGLPTLYFISPDSSKDAIRTEGLIPIQMMRDIIDNDL
In the case of B1, the binding is reported as “binds”.
